Patent US20250032430A1, “USES OF RHODOQUINONE FOR THE TREATMENT OF DISEASE” (Whitehead Institute for Biomedical Research, priority 2021, published 2025)

Experiments:
kidney = experiment: Kidney tissue cultured ex vivo (quinone levels, fumarate reduction); design: species or system mouse; conditions: petri dish
Method: Ex vivo stable isotope tracing on tissues: Tissues were excised from mice and washed in 1×PBS. Tissues were then cut into small pieces and placed in the appropriate stable isotope tracing media. Stable isotope tracing media contained either ^13C5^15N2-glutamine (Sigma) or 13C4-aspartate (Sigma) dissolved in DMEM, 5% FBS, 1% P/S. For ex vivo tracing experiments performed on the brain, the same media was used without FBS. Tissues were incubated for the designated time at 37° C. in a normal or hypoxia tissue culture incubator. Tissues were removed from the media, washed with PBS, and flash frozen in liquid nitrogen. Samples could be stored at −80° C. until metabolites were isolated.
Rhodoquinone-9 is a previously unknown mammalian metabolite. Without wishing to be bound by any particular theory, it is believed that since the level of rhodoquinone-9 decreases overtime when the kidney is cultured ex vivo, that cultured media is missing a component of the rhodoquinone biosynthetic pathway, and that this component may be coming from the gut microbiome.

[1] = Quinone detection in mitochondria of cultured 143B cells; design: species or system human; conditions: endogenous

Row | Compound | levels in kidney tissue cultured ex vivo over time (kidney) | detection in mitochondria purified from 143B cell line cultured in vitro [1]
1 | COC1=C(OC)C(=O)C(C/C=C(\C)CC/C=C(\C)CC/C=C(\C)CC/C=C(\C)CC/C=C(\C)CC/C=C(\C)CC/C=C(\C)CC/C=C(\C)CC/C=C(\C)CCC=C(C)C)=C(C)C1=O [ubiquinone] | remained unchanged | 
2 | rhodoquinone-9 | decreased overtime | 
3 | COC1=C(OC)C(=O)C(C/C=C(\C)CC/C=C(\C)CC/C=C(\C)CC/C=C(\C)CC/C=C(\C)CC/C=C(\C)CC/C=C(\C)CC/C=C(\C)CC/C=C(\C)CCC=C(C)C)=C(C)C1=O [ubiquinone-10] |  | detected
4 | rhodoquinone-10 |  | not detected
